From patent US20250249092A1 (TORAY INDUSTRIES, published 2025)
Positions count from the first letter of the chain named. Results are given in words; binding and its absence hold for the method and conditions named. Some results given as binding are weak or reduced against the parent protein; the word gives no strength.

T1: CAPRIN-1 protein on the cell membrane surface of cancer cells (UniProt Q14444)
T1 sequence (looked up): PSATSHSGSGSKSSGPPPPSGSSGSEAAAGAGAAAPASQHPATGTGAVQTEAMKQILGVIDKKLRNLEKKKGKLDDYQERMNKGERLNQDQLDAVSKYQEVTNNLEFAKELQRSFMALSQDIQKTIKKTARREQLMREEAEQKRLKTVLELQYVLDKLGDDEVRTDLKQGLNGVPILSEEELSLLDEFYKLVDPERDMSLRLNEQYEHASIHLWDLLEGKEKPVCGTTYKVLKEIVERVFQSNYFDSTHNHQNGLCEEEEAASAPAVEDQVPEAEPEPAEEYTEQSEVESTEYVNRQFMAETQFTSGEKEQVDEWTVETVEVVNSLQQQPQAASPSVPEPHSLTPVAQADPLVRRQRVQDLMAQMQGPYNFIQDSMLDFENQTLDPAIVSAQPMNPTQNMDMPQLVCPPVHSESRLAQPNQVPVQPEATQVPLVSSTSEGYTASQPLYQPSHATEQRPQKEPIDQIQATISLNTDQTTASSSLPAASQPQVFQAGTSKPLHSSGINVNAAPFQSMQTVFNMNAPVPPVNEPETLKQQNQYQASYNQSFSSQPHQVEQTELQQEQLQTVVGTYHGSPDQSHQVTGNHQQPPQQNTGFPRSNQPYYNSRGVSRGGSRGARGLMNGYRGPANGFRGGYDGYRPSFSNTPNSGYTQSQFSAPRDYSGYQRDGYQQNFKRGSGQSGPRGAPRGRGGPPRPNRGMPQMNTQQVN

B1: humanized anti-CAPRIN-1 monoclonal antibody #2 (antibody, human IgG1, V domains shown)
VH: EQSLVESGGGLVQPGGSLRLSCAASGFSLSSHSLGWVRQAPGKGLEWIGDIRSGGSAYYANWAKGRFTISRDNSKNTLYLQMNSLRAEDTAVYYCTRTNGPSDLTNRLDLWGQGTLVTVSS
VL: QVLTQSPSSLSASVGDRVTINCQASQSLYNNENLAWFQQKPGKVPKRLIYGASTLASGVSSRFSGSGSGTEFTLTISSLQCEDFAIYYCLGEFSCGSADCFAFGGGTKVEIK
B2: humanized anti-CAPRIN-1 monoclonal antibody #6 (antibody, human IgG1, V domains shown)
VH: B1 VH
VL: B1 VL
B3: Humanized monoclonal antibody #9 (antibody, human IgG1, V domains shown)
VH: AVTLDESGGGLQTPGGALSLVCKASGFTFSGYDMLWVRQAPGKGLEWVAGIGSTGGGTDYGAAVKGRATISRDNGQSTVRLQLNNLRAEDTATYYCAKVAGGCNSGYCRDSPGSIDAWGHGTEVIVS
VL: AVTQQPASVSANPGETVKITCSGGGSRNYYGWYQQKSPGSVPVTVIYYDDQRPSNIPSRFSGALSGSTSTLTITGVQADDEAVYFCGSADSNTYEGSFGAGTTLTVL
B4: Humanized monoclonal antibody #13 (antibody, human IgG1, V domains shown)
VH: GAELVRSGASVKMSCKASGYSFTDYNMYWVKQTPGQGLEWIGYIYPGNGGTNYNQKFKGKATLTADTSSSTAYMQISSLTSEDSAVYFCARDYDDGGYAMDYWGQGTTVTVSS
VL: DIQMTQSPASLSASVGETVTITCRASGNIHNYLTWYQQKQGKSPQLLVYNAKTLADGVPSRFSGSGSGTQYSLKINRLQPEDFGSYYCQHFWNIPWTFGGGTKLNSR
B5: Humanized monoclonal antibody #14 (antibody, human IgG1, V domains shown)
VH: DAELVKPGASVKISCKASGYTFTDHSIHWVQQKPEQGLEWIGYISPGNGNIKYNEKFKGKATLTADKSSSTAYMQLNSLTSEDSAVYFCKRSLGRGGPYYFDYWGQGTTVTVSS
VL: DIVLTQAAPSLPVTPGESVSISCRSSKSLLHSNGNTYLYWFLQRPGQSPQLLIYRMSNLASGVPDRFSGSGSGTAFTLRISRVEAEDVGVYYCMQHREYPVTFGSGPN
B6: Humanized monoclonal antibody #19 (antibody, human IgG1, V domains shown)
VH: EVQLHQFGAELVKPGASVKISCKASGYTFTDYNMDWVKQSHGKSLEWIGDINPNYDSTSYNQKFKGKATLTVDKSSSTAYMELRSLTSEDTAVYYCARSRSYDYEGFAYWGQGTLVTVSA
VL: DIQMTQSPASLSASVGETVTITCRASGNIHNYLAWYQQKQGKSPQLLVYNAKTLADGVPSRFSGSGSGTQYSLKINSLQPEDFGSYYCQHFWSTLTFGAGTKLELKR
B7: Humanized monoclonal antibody #30 (antibody, human IgG1, V domains shown)
VH: GPDLVKPGASVKISCKASGYSFTAYYMHWVKQSHGKSLEWIGRVNPNNGGTTYNQKFKGKAILTVDKSSSTAYMELRSLTFEDSAVYYCARRIYYGYFDYWGQGTTVTVSS
VL: AFFAVSLGQRATISCKASQSVDYDGDSYMNWYQQKPGQPPKLLIYVASNLESGVPARFSGSGSGTDFTLNIHPVEEEDAATYYCQQSNEDPYTFGGGTKLEIKQ
B8: Humanized monoclonal antibody #36 (antibody, human IgG1, V domains shown)
VH: B1 VH with Q2V, S3Q
VL: B1 VL
B9: Humanized monoclonal antibody #37 (antibody, human IgG1, V domains shown)
VH: B1 VH with Q2V, S3Q, Y94F
VL: B1 VL
B10: Humanized monoclonal antibody #38 (antibody, human IgG1, V domains shown)
VH: B1 VH with Q2V, S3Q
VL: EQVLTQSPSSLSASVGDRVTINCQASQSLYNNENLAWFQQKPGKVPKRLIYGASTLASGVSSRFSGSGSGTEFTLTISNLQPEDFAIYYCLGEFSCGSADCFAFGGGTKVEIK
B11: Humanized monoclonal antibody #39 (antibody, human IgG1, V domains shown)
VH: B1 VH with Q2V, S3Q, Y94F
VL: B10 VL with Q2I, I87T
B12: Humanized monoclonal antibody #40 (antibody, human IgG1, V domains shown)
VH: B1 VH with Q2V, S3Q
VL: B10 VL with Q2I, I87T
B13: Humanized monoclonal antibody #41 (antibody, human IgG1, V domains shown)
VH: B1 VH with Q2V, S3Q, Y94F
VL: B10 VL
B14: humanized anti-CAPRIN-1 antibody #42 (antibody, human IgG1, V domains shown)
VH: B3 VH
VL: B3 VL
B15: humanized anti-CAPRIN-1 antibody #46 (antibody, human IgG1, V domains shown)
VH: B4 VH
VL: B4 VL
B16: humanized anti-CAPRIN-1 antibody #47 (antibody, human IgG1, V domains shown)
VH: B5 VH
VL: B5 VL
B17: humanized anti-CAPRIN-1 antibody #52 (antibody, human IgG1, V domains shown)
VH: B6 VH
VL: B6 VL
B18: humanized anti-CAPRIN-1 antibody #63 (antibody, human IgG1, V domains shown)
VH: B7 VH
VL: B7 VL
B19: humanized anti-CAPRIN-1 antibody #69 (antibody, human IgG1, V domains shown)
VH: B1 VH with Q2V, S3Q
VL: B1 VL
B20: humanized anti-CAPRIN-1 antibody #70 (antibody, human IgG1, V domains shown)
VH: B1 VH with Q2V, S3Q, Y94F
VL: B1 VL
B21: humanized anti-CAPRIN-1 antibody #71 (antibody, human IgG1, V domains shown)
VH: B1 VH with Q2V, S3Q
VL: B10 VL
B22: humanized anti-CAPRIN-1 antibody #72 (antibody, human IgG1, V domains shown)
VH: B1 VH with Q2V, S3Q, Y94F
VL: B10 VL with Q2I, I87T
B23: humanized anti-CAPRIN-1 antibody #73 (antibody, human IgG1, V domains shown)
VH: B1 VH with Q2V, S3Q
VL: B10 VL with Q2I, I87T
B24: humanized anti-CAPRIN-1 antibody #74 (antibody, human IgG1, V domains shown)
VH: B1 VH with Q2V, S3Q, Y94F
VL: B10 VL
B25: mouse chimeric antibody #1 (antibody, V domains shown)
VH: AVTLDESGGGLQMSRGGLSLVCKASGFDFSSYQMNWIRQAPGKGLEFVAAINKFGNSTGHGAAVKGRVTISRDNGQSTVRLQLNNLRAEDTAIYFCTKHAYGYCGSGTWCAAGEIDAWGHGTEVIVSS
VL: QAASTQPSSVSANPGETVEITCSGGGSYSYGWFQQKSPGSAPVTVIYYNNKRPSDIPSRFSGSKSGSTGTLTITGVQADDEAVYYCGSGDSTDTAVFGAGTTLTVLG

These binders were tested against T1, CAPRIN-1 protein on the cell membrane surface of cancer cells (assay: flow cytometry).

Binder	binding
B1	binds
B2	binds
B3	binds
B4	binds
B5	binds
B6	binds
B7	binds
B8	binds
B9	binds
B10	binds
B11	binds
B12	binds
B13	binds
B14	binds
B15	binds
B16	binds
B17	binds
B18	binds
B19	binds
B20	binds
B21	binds
B22	binds
B23	binds
B24	binds
B25	binds
